{
  "source": "patent US12606551B2",
  "about": "“Salt of tetrahydroisoquinoline derivative, preparation method therefor, and medical use thereof” (ZHEJIANG HISUN PHARMACEUTICAL CO., LTD., priority 2020, dated 2026)",
  "experiment": "Solubility test",
  "format": "physicochemical",
  "conditions": "versus free acid compound 1m",
  "experimental": "According to the conventional method for solubility assay, the solubility of the compounds of the present invention in the following four different systems was tested: phosphate salt buffer PBS (pH7.4), methanol, 0.1% HCl and water.",
  "note": "At least one read-out could not be matched to a standard name with certainty.",
  "data": [
    {"smiles": "COc1ccc(COc2c(OC)ccc3c2C[C@@H](C(=O)[O-])N(c2nc4ccc(F)cc4o2)C3)nc1.[Na+]", "note": "[Compound 1]", "values": [
      {"measurement": "Increase of solubility in water compared with compound 1m", "value": "more than 200 times"}
    ]}
  ]
}
